Patent US20100113612A1, “NOVEL USE OF HYDROXYTYROSOL AND OLIVE EXTRACTS/CONCENTRATE CONTAINING IT” (priority 2007, published 2010)
For at least one compound, name, drawing or mass did not settle the structure.

System: Drosophila melanogaster (Oregon wild strain)
Assay: Life extending experiments with Drosophila (lifespan study)
Type: in vivo
Conditions: male Drosophila, all concentrations 1, 5, 10, 20 and 50 mg/100 g in the diet
Method: Drosophila melanogaster (Oregon wild strain) were used for lifespan study. Flies were reared in a light/dark cycle of 12:12 hours at a temperature of 25° C. and 65% relative humidity. Drosophila were fed with a standard medium consisting of 170 g of corn flour, 15 g of agar, 15 g of yeast, 10 ml of 100% propionic acid, 130 g of sucrose, and 2000 ml of water.
One-day-old Drosophila were transferred to plastic vials (25×100 mm) containing 2 ml of the diet medium, which was replaced every 3 days. 10 flies from each gender were kept in one vial. Hydroxytyrosol was provided in the diet to Drosophila from age of 15 days on. The Drosophilae were counted every 3 days until all flies died. Survivals were calculated at the end of the experiments after correcting total loss incurred from handling (Phillips J P, Campbell S D, Michaud D, Charbonneau M, Hilliker A J, Proc Natl Acad Sci USA. 1989, 86(8), 2761-2765: “Null mutation of copper/zinc superoxide dismutase in Drosophila confers hypersensitivity to paraquat and reduced longevity.”). The mean lifespan was calculated according to the method described by Cui X, Dai X G, Li W B, Zhang B L, Fang Y Z in Am. J. Chin. Med. 1999, 27(3-4), 407-413: “Effects of lu-duo-wei capsule on prolonging life span of housefly and Drosophila melanogaster.”

OCCc1ccc(O)c(O)c1 [Hydroxytyrosol, 3,4-dihydroxyphenylethanol] was tested, and the effect on lifespan was “extended the lifespan”.
